For 18 molecules, binding results are on record in patent publication US20250129170A1.

Sequences of proteins named here, by UniProt entry; tags and fusion partners are left off. A change or cut given only in a name is not applied to a line headed by its entry. Residues count along the entry.
UniProt P32927, residues 17-443: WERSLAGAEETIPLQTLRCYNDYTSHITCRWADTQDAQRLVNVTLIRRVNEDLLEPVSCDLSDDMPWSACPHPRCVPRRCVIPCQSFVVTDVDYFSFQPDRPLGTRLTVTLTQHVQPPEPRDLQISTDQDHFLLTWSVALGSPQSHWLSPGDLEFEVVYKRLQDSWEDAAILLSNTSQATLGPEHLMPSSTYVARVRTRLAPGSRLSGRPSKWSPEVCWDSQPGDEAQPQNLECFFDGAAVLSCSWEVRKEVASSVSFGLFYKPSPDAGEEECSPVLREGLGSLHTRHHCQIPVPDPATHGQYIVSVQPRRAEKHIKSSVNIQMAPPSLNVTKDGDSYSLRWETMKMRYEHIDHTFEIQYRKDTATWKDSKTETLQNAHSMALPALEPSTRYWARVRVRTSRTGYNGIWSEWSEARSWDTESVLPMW
UniProt P19235, residues 25-250: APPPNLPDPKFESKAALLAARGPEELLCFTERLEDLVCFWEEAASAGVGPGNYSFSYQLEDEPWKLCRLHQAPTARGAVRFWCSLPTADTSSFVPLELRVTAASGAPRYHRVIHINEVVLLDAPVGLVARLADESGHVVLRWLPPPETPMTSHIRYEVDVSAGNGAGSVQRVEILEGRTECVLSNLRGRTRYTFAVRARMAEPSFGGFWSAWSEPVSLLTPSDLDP

These are yes or no findings as the source states them, for the method shown. Some results given as binding are weak or reduced against the parent protein; the word gives no strength.

Assay [1] deals with hCD131-Fc (IME021, inhouse) (human) (UniProt P32927). Kind of assay: member of Table 6 (words from the table's title); B-cell sorting with labelled hCD131-Fc, then single-cell sequencing.
For assay [2] the target is unchanged. Kind of assay: B-cell sorting with labelled hCD131-Fc, then single-cell sequencing.
The target of assay [3] is recombinant hEPOR-Fc (SinoBiological, Cat #10707-H02H) (human) (UniProt P19235). Kind of assay: B cells sorted by flow cytometry on labeled hEPOR-Fc, single cell sequencing. Background: A flow cytometer gives signals particle by particle.
Assay [4] shares this target. Kind of assay: B-cell sorting, labelled hEPOR-Fc and hCD131-Fc.
For assay [5], the target named is hCD131-Fc (IME021, inhouse) (human) (UniProt P32927). As to the kind of experiment: B-cell sorting, labelled hEPOR-Fc and hCD131-Fc.

B1: anti-CD131 antibody clonotype263 (Table 6) (antibody, V domains shown)
VH: QLQLQESGPGLVKPSETLSLTCTVSGGSISSSSYYWGWIRQPPGKGLEWIGSIYYSGSTYYNPSLKSRVTISVDTSKNQFSLKLSSVTAADTAVYYCARHAAAGGWFDPWGQGTLVTVSS
VL: QAVLTQPASLSASPGASASLTCTLRSGINVGTYRIYWYQQKPGSPPQYLLRYKSDSDKQQGSGVPSRFSGSKDASANAGILLISGLQSEDEADYYCMIWHSSAVVFGGGTKLTVL
Regarding B1, the binding entry in assay [1] and in assay [2] was “binds” each time.

B2: anti-EPOR antibody clonotype436 (antibody, V domains shown)
VH: EVQLVESGGGLIQPGGSLRLSCAASGLTVSTNYMSWVRQAPGKGLEWVSVLYSGGGTYYADSVKGRFTISRDNSKNTLCLQMNSLRAEDTAMYYCARDNWDSYFDYWGQGTLVTVSS
VL: QTVVTQEPSLTVSPGGTVTLTCASSTGAVTSGYYPNWFQQKPGQAPRALIYSTSNKHSWTPARFSGSLLGGKAALTLSGVQPEDEAEYYCLLYYGGARVFGGGTKLTVL
On to B2, for which, in assay [3], the binding entry was “binds”.

B3: anti-CD131 antibody clonotype255 (Table 6) (antibody, V domains shown)
VH: EVRLVESGGGLVKPGGSLRLSCAASGFIFSSYSMTWVRQAPGKGLEWVSSISGSSSFVKYGDSVKGRFTISRDNAKNSLYLQMNSLRAEDTAVYYCAREGVLCSGGSCYREIFDYWGQVTLVTVSS
VL: SSELTQDPAVSVALGQTVRITCQGDSLRSYYASWYQQKPGQAPVLVIYGKNNRPSGIPDRFSGSSSGNTASLTITGAQAEDEADYYCNSRDSSGNHLVFGGGTKLTVL
Take B3: the binding result in assay [1] and in assay [2] was “binds” throughout.

B4: anti-EPOR antibody clonotype445 (antibody, V domains shown)
VH: EVQLVESGGGLVKPGGSLRLSCAASGFTFSSYSMNWVRQAPGKGLEWVSSISSSSSYIYYADSVKGRFTISRDNAKNSLYLQMNSLRAEDTAVYYCARDRGATGFDYWGQGTLVTVSS
VL: SSELTQDPAVSVALGQTVRITCQGDSLRSYYASWYQQKPGQAPVLVIYGKNNRPSGIPDRFSGSSSGNTASLTITGAQAEDEADYYCNSRDSSGNHWVFGGGTKLTVL
Consider B4, for which the binding result in assay [3] is given as “binds”.

B5: anti-EPOR antibody clonotype432 (antibody, V domains shown)
VH: EVQLVESGGGLVQPGGSLRLSCAASGFTFSSYWMSWVRQAPGKGLEWVANIKQDGSEKYYVDSVKGRFTISRDNAKNSLYLQMNSLRAEDTAVYYCARRIVGAFDYWGQGTLVTVSS
VL: SSELTQDPAVSVALGQTVRITCQGDSLRSYYASWYQQKPGQAPVLVIYGKNNRPSGIPDRFSGSSSGNTASLTITGAQAEDEADYYCNSRDSSGNHLVFGGGTKLTVL
On to B5, for which the binding entry in assay [3] is reported as “binds”.

B6: anti-EPOR antibody clonotype431 (antibody, V domains shown)
VH: EVQLVESGGGLVKPGGSLRLSCAASGFTFSSYSMNWVRQAPGKGLEWVSSISSSSSYIYYADSVKGRFTISRDNAKNSLYLQMNSLRAEDTAVYYCARDLISSFDYWGQGTLVTVSS
VL: SSELTQDPAVSVALGQTVRITCQGDRLRSYYASWYQQKPGQAPVLVIYGKNNRPSGIPDRFSGSSSGNTASLTITGAQAEDEADYHCNSRDSSGNHLVFGGGTKLTVL
Regarding B6, the binding result in assay [3] is listed as “binds”.

B7: clonotype241 (EPOR/CD131 binder, Table 8) (antibody, V domains shown)
VH: QVQLVQSGAEVKKPGASVKVSCKASGYTFTSYYIHWVRQAPGQGLEWMGIINPSGGTTNYAQKFQGRVTMTRDTSTSTVYMELSSLRSEDTAVYYCARGDWGTMDVWGKGTTVTVSS
VL: QSALTQPASVSGSPGQSITISCTGTSSDVGNYNYVSWYQQHPGKVPKLMIYEVIYRPSGVSNRFSGSKSGNTASLTISGLQAEDEADYYCTSYTRNNTYVFGSGTKVTVL
On to B7, for which the binding result in assay [4] and in assay [5] was “binds” each time.

B8: clonotype252 (EPOR/CD131 binder, Table 8) (antibody, V domains shown)
VH: QVQLVESGGGVVQPGRSLRLSCAASGFTFSNYGMHWVRQAPGKGLDWVAVIWYDGNNEYYADSVKDRFTISRDNSQNTLYLQMNSLRAEDRAVYYCVRGGVGDGFDMWGQGTMVTVSS
VL: QSALTQPASVSGSPGQSITISCTGTSSDVGGYNYVSWYQQHPGKVPKLMIYEVSNRPSGVSNRFSGSKSGNTASLTISGLQAEDEADYYCISYTNTNTRVFGGGTKLTVL
On to B8, for which the binding result in assay [4] and in assay [5] was “binds” each time.

B9: anti-CD131 antibody clonotype261 (Table 6) (antibody, V domains shown)
VH: EVQLVESGEGLVKPGGSLRLSCVASGFDFTNAWMSWVRQAPGRGLEWVGRIKSKTDGGSIDYAAPVKGRFTISRDDSKTTLYLQMTSLRTEDTAVYYCSTSPYYDFWSGYYGYIDYWGQGTLVTVSS
VL: QSVLTQPPSVSGAPGQRVTISCTGSSSNIGAGYAVHWYQQFPGIAPKLLIYGNINRPSGVPDRFSGSKSDTSASLAITGLQAEDEADYYCQSFDSSLSGVMFGGGTKLTVL
Consider B9, for which the binding result in assay [1] and in assay [2] was “binds” throughout.

B10: anti-CD131 antibody clonotype272 (Table 6) (antibody, V domains shown)
VH: QVQLVQSGAEVKKPGASVKVSCKASGYTFTSYDINWVRQATGQGLEWMGWLNPKNGYTGYSHKFQGRVTMTRNTSISTAYMELSSLRSEDAAVYFCARRGDFWSGYYSTSQNIVIHWFDSWGLGTLVTVSS
VL: QSVLTQPPSVSGAPGQRVTISCTGSSSNIGAGYDVHWYQQLPGTAPKLLIYGNSNRPSGVPDRFSGSKSGTSASLAITGLQAEDEADYYCQSYDSSLSGSVFGGGTKLTVL
With B10, the binding entry in assay [1] and in assay [2] was “binds” in each case.

B11: clonotype242 (EPOR/CD131 binder, Table 8) (antibody, V domains shown)
VH: EVQLVESGGGLVQPGGSLRLSCAASGFTFSSYWMSWVRQAPGKGLEWVANIKQDGSEKYYVDSVKGRFTISRDNAKNSLYLQMNSLRAEDTAVYYCARDGTGWFDPWGQGTLVTVSS
VL: QSVLTQPPSVSGAPGQRVTISCTGSSSNIGAGYDVHWYQQLPGTAPKLLIYGNSNRPSGVPDRFSGSKSGTSASLAITGLQAEDEADYYCQSYDSSLSGWVFGGGTKLTVL
Regarding B11, the binding result in assay [4] and in assay [5] was “binds” each time.

B12: clonotype243 (EPOR/CD131 binder, Table 8) (antibody, V domains shown)
VH: QVQLVQSGAEVKKPGASVKVSCKASGYTFTSYGISWVRQAPGQGLEWMGWISAYNGNTNYAQKLQGRVTMTTDTSTSTAYMELRSLRSDDTAVYYCARRGTVVFDYWGQGTLVTVSS
VL: QSALTQPASVSGSPGQSITISCTGTSSDVGGYNYVSWYQQHPGKAPKLMIYDVSKRPSGVSNRFSGSKSGNTASLTISGLQAEDEADYYCCSYAGSSTYVVFGGGTKLTVL
Regarding B12, the binding result in assay [4] and in assay [5] was “binds” in each case.

B13: clonotype244 (EPOR/CD131 binder, Table 8) (antibody, V domains shown)
VH: QVQLVQSGAEVKKPGASVKVSCKASGYTFTNYGISWVRQAPGQGLEWMGWISAYNGNTNYAQNLQGRVTMTTDTSTSTAYMELRSLRSDDTAVYYCARPLSGTLDNWGQGTLVTVSS
VL: QSALTQPASVSGSPGQSITISCTGTSSDVGGYNYVSWYQQHPGKAPKLMIYDVSKRPSGVSNRFSGSKSGNTASLTISGLQAEDEADYYCCSYAGRSTLGIDWVFGGGTKLTVR
In the case of B13, the binding entry in assay [4] and in assay [5] was “binds” in each case.

B14: anti-EPOR antibody clonotype427 (antibody, V domains shown)
VH: QVQLVQSGAEVKKPGASVKVSCKASGYTFTSYGISWVRQAPGQGLEWMGWISAYNGNTNYAQRLQGRVTMTTDTSTSTAYMELRSLISDDTAVYYCARNHYYYLDVWGKGTTVTVSS
VL: SYELTQPSSVSVSPGQTARITCSGDVLAKKYARWFQQKPGQAPVLVIYKDSERPSGIPERFSGSSSGTTVTLTISGAQVEDEADYYCYSAADNNRVFGGGTKLTVL
As to B14, the binding result in assay [3] is listed as “binds”.

B15: clonotype249 (EPOR/CD131 binder, Table 8) (antibody, V domains shown)
VH: QVQLVQSGAEVEKPGASVKVSCKASGYTFTSYDIYWVRQATGQGLEWMGWMIPNSGNTGYAQRFEDRVTMTRSTSMNTAYMELNSLRSEDTAVYYCARGDWAWSFDLWGRGTLVTVSS
VL: QSALTQPASVSGSPGQSITISCTGTSSDVGGYNYVSWYQQHPGKAPKLMIYEVSHRPSGVSNRFSGSKSGNTASLTISGLQAEDESDYYCSSYTSSSSLVFGGGTKLTVL
Take B15: the binding entry in assay [4] and in assay [5] was “binds” each time.

B16: clonotype250 (EPOR/CD131 binder, Table 8) (antibody, V domains shown)
VH: QVQLVQSGAEVKKPGASVKVSCKASGYTFTSYYMHWVRQAPGQGLEWMGIINPSGGSTSYAQKFQGRVTMTRDTSTSTVYMELSSLRSEDTAVYYCARGLRRDWFDPWGQGTLVTVSS
VL: QSALTQPASVSGSPGQSITISCTGTSSDVGGYNYVSWYQQHPGKAPKLMIYEVSNRPSGVSNRFSGSKSGNTASLTISGLQAEDEADYYCSSYTSSSTWVFGGGTKLTVL
On to B16, for which the binding result in assay [4] and in assay [5] was “binds” each time.

B17: clonotype255 (EPOR/CD131 binder, Table 8) (antibody, V domains shown)
VH: EVQLVESGGGLVKPGGSLRLSCAASGFTFSSYSMNWVRQAPGKGLEWVSSISSSSSYIYYADSVKGRFTISRDNAKNSLYLQMNSLRAEDTAVYYCARDSAYYTFDYWGQGTLVTVSS
VL: QSALTQPPSASGSPGQSVTISCTGTSSDVGGYNYVSWYQQHPGKAPKLMIYEVSKRPSGVPDRFSGSKSGNTASLTVSGLQAEDEADYYCSSYAGSNNFWVFGGGTKLTVL
In the case of B17, the binding entry in assay [4] and in assay [5] was “binds” throughout.

B18: clonotype254 (EPOR/CD131 binder, Table 8) (antibody, V domains shown)
VH: EVQLVESGGGVVRPGGSLRLSCAASGFTFDDYGMSWVRQAPGKGLEWVSGINWNGGSTGYADSVKGRFTISRDNAKNSLYLQMNSLRAEDTALYYCARKGNWNSFDYWGQGTLVTVSS
VL: QSALTQPPSASGSPGQSVTISCTGTSSDVGGYNYVSWYQQHPGKAPKLMIYEVSKRPSGVPDRFSGSKSGNTASLTVSGLQAEDEADYYCSSYAGSNNWVFGGGTKLTVL
For the molecule B18, the binding entry in assay [4] is “binds”.
